The text below walks through data of article PMC12265967.

By UniProt entry, the sequences of proteins in these tests, tags left out. Residues count along the entry.
UniProt P06756, residues 31-1048: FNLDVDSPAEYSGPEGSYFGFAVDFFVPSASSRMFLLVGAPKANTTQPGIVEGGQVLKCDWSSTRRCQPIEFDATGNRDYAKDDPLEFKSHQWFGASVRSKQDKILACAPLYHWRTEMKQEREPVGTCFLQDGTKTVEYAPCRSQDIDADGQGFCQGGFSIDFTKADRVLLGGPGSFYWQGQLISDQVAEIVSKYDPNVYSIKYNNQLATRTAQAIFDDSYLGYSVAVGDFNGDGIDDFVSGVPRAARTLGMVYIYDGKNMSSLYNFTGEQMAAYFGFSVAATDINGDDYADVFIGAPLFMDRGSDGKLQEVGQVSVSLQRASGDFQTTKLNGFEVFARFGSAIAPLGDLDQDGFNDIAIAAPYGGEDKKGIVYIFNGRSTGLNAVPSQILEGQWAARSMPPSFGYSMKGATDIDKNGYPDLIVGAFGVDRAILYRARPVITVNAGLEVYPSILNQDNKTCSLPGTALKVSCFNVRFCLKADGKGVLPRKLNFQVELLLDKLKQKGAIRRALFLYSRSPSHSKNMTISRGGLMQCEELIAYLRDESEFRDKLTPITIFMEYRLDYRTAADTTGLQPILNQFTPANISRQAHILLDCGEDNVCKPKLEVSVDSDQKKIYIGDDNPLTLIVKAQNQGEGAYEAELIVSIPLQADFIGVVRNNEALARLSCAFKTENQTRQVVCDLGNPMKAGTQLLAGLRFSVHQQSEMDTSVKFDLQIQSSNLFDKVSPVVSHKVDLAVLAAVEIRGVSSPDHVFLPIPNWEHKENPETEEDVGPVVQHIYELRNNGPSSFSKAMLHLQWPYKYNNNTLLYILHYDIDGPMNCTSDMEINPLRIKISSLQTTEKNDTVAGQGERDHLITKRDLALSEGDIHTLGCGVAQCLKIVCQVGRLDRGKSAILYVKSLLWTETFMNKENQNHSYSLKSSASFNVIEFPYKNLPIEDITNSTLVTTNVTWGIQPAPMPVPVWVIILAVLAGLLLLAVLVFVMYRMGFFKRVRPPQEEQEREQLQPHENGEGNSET
UniProt P17948, residues 27-1338: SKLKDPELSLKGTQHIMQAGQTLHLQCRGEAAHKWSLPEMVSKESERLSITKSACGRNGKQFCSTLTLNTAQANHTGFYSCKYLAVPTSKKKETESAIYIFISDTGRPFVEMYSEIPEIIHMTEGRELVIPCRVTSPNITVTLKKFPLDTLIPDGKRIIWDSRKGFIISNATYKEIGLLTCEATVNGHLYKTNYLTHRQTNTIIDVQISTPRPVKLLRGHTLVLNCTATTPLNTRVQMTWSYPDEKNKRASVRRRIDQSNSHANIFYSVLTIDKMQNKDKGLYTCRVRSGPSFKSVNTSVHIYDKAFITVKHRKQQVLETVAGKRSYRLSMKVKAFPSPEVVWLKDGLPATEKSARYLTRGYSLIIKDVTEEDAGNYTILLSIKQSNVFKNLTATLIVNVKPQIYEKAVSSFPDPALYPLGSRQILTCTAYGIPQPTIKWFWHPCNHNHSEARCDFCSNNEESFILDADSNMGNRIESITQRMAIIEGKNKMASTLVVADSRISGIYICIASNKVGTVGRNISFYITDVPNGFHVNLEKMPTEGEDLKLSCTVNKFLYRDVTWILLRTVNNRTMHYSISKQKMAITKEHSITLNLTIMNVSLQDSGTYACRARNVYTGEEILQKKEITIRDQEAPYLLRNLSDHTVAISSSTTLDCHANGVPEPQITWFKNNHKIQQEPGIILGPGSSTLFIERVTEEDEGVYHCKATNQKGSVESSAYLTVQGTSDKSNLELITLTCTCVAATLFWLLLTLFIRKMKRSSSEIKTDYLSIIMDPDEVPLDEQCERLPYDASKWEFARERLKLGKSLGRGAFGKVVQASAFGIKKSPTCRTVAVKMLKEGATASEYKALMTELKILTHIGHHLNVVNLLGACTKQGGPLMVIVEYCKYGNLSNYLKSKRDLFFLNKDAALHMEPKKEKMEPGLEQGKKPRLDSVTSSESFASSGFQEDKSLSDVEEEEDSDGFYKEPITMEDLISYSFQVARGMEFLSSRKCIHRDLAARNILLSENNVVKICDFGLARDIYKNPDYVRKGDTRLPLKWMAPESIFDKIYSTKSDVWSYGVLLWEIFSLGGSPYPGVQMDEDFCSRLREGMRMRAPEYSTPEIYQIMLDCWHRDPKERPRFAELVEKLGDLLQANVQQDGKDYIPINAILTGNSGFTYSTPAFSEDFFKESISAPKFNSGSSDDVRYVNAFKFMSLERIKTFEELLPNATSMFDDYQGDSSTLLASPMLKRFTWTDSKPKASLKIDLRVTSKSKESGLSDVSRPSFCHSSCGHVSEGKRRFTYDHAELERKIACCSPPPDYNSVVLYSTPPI

One assay has as its target VEGF-B186-Fc (UniProt P49765). Kind of assay: pull-down; HUVECs (siFLT1-treated) given 5 ug VEGF-B186-Fc or 1% BSA for 1 h at 4°C, lysed, protein A/G magnetic beads 2 h at 4°C, immunoblot; only the target purified.
Assay [1] has as its target His-VEGF-B186 (UniProt P49765). Kind of assay: pull-down; HUVECs treated with 5 ug His-VEGF-B186 or 1% BSA for 1 h at 4°C, lysed (Pierce IP Lysis Buffer), Ni-NTA magnetic beads 2 h at 4°C, immunoblot; only the target purified.
Assay [2] concerns the target His-VEGF-B186 (UniProt P49765). Kind of assay: cross-linking; sulfo-SBED-labeled VEGF-B186 (2 ug in 1 mL HEPES buffer) on confluent HUVECs or TeloHAECs at 4°C for 1 h, UV 312 nm at room temperature, 200 mM DTT, lysis; biotin label transfer read by immunoblot and by LC-MS/MS of membrane areas; only the target purified.

These are yes or no findings as the source states them, for the method shown. Binding seen in cells or lysates may run through a third protein. Some results given as binding are weak or reduced against the parent protein; the word gives no strength. Sequences can lack the tags named with a protein.

On to “CD51 (encoded by integrin alpha-V [ITGAV]) (from UniProt P06756 31-1048) (receptor)”, for which the binding result with VEGF-B186-Fc, in the assay with His-VEGF-B186 [1] and with His-VEGF-B186 [2] was “binds” in each case.

“vascular endothelial growth factor receptor 1 (VEGFR1) (from UniProt P17948 27-1338)”: the binding entry with VEGF-B186-Fc is reported as “binds”.
